Consider four molecules from paper PMC6488594.

Amino acid sequences for entries named in this document (tags omitted).
UniProt P59242: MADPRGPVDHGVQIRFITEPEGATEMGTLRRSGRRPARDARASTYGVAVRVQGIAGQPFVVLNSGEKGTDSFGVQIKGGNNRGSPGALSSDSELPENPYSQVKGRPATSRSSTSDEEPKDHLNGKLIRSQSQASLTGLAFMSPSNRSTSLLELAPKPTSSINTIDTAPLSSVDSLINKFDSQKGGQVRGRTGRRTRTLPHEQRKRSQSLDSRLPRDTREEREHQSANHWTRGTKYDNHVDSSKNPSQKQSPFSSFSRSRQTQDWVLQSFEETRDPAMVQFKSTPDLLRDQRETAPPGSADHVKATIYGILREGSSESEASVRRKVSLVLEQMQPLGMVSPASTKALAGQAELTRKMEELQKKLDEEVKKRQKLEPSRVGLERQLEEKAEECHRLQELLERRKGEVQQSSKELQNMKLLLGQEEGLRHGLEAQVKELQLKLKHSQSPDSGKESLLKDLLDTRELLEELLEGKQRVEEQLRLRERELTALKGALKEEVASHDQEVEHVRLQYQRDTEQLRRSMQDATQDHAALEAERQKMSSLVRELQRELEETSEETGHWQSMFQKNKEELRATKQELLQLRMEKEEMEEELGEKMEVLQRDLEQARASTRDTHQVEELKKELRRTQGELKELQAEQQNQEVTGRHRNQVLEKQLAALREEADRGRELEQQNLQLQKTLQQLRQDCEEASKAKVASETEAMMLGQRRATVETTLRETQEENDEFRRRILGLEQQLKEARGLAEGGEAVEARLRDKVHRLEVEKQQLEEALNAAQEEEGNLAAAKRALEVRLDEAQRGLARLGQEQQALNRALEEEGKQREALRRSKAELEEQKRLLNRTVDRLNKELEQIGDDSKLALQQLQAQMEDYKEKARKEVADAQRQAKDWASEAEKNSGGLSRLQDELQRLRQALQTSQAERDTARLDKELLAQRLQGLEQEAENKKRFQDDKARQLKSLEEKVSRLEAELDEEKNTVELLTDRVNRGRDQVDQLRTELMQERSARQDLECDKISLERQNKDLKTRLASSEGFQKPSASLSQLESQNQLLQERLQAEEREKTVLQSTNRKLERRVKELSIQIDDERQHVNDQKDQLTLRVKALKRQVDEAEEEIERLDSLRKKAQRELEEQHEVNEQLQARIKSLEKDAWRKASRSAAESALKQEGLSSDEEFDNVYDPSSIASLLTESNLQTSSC
UniProt Q60598: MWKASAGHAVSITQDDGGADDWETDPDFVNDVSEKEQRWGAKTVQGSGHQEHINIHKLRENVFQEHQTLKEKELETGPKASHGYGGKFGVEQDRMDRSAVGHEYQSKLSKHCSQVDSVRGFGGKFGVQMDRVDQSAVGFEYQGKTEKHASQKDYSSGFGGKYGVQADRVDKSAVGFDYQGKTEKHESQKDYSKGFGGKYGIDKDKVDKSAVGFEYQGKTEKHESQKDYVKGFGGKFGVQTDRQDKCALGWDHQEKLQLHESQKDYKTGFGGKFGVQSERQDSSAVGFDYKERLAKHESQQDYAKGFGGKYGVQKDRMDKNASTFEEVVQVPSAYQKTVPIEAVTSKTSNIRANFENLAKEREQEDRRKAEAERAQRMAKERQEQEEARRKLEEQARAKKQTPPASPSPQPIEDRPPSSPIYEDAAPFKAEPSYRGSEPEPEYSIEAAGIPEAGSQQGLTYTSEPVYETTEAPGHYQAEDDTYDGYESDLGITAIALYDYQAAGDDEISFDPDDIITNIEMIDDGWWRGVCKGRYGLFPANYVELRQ
UniProt P35579: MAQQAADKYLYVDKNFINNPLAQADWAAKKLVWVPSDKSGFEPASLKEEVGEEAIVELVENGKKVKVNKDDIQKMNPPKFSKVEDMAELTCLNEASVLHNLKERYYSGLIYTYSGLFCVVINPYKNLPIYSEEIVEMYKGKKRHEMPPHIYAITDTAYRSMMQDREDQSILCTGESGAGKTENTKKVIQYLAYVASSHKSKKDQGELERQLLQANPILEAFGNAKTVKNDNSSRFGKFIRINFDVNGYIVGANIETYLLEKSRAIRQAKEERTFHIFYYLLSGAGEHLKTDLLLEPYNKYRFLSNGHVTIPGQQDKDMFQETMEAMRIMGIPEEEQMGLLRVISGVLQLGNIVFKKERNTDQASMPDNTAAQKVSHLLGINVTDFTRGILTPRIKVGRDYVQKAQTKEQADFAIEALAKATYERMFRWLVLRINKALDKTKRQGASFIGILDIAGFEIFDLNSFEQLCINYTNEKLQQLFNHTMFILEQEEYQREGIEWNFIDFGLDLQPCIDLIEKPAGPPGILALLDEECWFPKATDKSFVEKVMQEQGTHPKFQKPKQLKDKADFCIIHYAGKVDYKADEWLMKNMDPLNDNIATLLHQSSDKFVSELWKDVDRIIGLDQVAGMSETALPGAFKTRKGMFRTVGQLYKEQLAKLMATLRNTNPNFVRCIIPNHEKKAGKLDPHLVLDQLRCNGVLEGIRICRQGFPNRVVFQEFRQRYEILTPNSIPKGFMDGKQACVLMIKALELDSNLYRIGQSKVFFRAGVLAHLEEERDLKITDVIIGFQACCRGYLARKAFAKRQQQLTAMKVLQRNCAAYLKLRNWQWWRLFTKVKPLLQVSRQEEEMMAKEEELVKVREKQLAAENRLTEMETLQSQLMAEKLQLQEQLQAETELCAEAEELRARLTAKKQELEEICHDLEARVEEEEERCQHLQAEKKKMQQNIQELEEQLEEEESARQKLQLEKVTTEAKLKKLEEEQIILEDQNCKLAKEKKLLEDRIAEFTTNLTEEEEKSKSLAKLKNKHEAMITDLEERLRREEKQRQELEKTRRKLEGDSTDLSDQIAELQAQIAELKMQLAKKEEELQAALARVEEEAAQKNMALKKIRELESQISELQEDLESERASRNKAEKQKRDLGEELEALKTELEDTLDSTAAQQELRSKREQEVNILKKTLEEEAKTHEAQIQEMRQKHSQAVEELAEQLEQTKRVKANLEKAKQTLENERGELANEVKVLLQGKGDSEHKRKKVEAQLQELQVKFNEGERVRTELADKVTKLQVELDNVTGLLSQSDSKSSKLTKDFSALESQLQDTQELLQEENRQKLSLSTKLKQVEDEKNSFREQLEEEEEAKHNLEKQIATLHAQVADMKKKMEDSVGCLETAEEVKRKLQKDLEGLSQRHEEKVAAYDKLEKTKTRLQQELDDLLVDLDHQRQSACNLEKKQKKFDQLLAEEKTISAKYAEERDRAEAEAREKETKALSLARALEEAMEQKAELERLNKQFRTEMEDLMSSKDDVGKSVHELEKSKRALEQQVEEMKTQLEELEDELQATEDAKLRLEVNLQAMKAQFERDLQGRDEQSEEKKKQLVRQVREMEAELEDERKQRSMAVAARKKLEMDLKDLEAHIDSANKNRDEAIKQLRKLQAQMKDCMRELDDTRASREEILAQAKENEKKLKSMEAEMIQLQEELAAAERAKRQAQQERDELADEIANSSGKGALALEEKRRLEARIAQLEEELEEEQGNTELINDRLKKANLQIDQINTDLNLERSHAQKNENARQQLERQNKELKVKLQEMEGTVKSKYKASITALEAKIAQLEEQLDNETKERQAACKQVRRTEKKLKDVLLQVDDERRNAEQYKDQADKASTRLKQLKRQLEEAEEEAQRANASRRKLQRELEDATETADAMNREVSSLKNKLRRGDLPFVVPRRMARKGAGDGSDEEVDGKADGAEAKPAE

These are yes or no findings as the source states them, for the method shown. Binding seen in cells or lysates may run through a third protein. Some binding calls cover weakened binding; strength is not graded here. Where a sequence is shown, tags or fusion partners need not be part of it.

T1: EPRp-FLAG (small EPR-encoded peptide, FLAG-tagged) (mouse) (UniProt Q3V2G4)
T1 sequence: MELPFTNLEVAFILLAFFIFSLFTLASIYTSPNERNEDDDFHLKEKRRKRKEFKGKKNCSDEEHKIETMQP

B1: CGNL1 (Paracingulin) (protein, UniProt Q6AW69 1-1297)
chain: MELYFGEYQHVQQEYGVHLRLASGDTPKPRNSQPSKAGSYGVSIRVQGIDGHPYIVLNNTERCLAGTPFPENAPSFPSSVINNLSLHPSNGTVLKENTPEELQLPENPYLQTSPLRGQKQFSLHEGRNGVLERKDGPTKLPHVLNFQRHPELLQPYDPEKNEVNAKKHHPPESPWLRNATEDGTNCKKSRNCFPKSYGSQPNSPTSEDLAKTNMTAIRLCSSVVIEDPQKQTSVCVNVQRCAKEGVGEETLSPRRKSPTAPSPQAYSETKKNRPDVLPFRRQDSAGPILDGARSRRSSSSSTTPTSATSLYKFLLDDQECAIHADSVNRHENRRYIPFLPGTGRDIDTCSIPGVDQLIEKFDQKPGLQRRGRSGKRNRINPDDRKRSRSVDSAFPFGLQGNTEYLTEFSRNLGKSSEHLLRPSQVFPQRSVAQEHRGKHSPSSPPAKLQGAQGAHPKPPLQNKDGKVLNKGRQESTGACAPSLPAPNKKEEEIKIATATLMLQNRAVAATSDSGAKKISVKTFPSDSSTQATPDLLKGQQELTQQTNEETAKQILYNYLKEGGTDNEDATKRKVNLVFEKIQTLKSRAAGSAQGSNQAPNSPSEGNSLLDQKNKLILEVSELQQQLQLEMKNQQNIKEERERMREDLEELRVRHQSQVEETATLQRRLEESEGELRKSLEELFQVKMEREQHQTEIRDLQDQLSEMHDELDSTKRSEDREKGALIEELLQAKQDLQDLLIAKEEQEDLLRKRERELTALKGALKEEVSSHDQEMDKLKEQYDAELQALRESVEEATKNVEVLASRSNSSEQSQAEADLREKVLKEENEKLQGRIAELERRAAQLQRQMEDVKGDEAQAKETLRKCESEVQQLEEALVHARKEEKEATCARRALEKELEQARRELSQVSQEQKELLEKLRDEAEQKEQLRKLKNEMESERWHLDKTIEKLQKEMADIAEASRTSSLELQKQLGEYKEKNRRELAEMQTQLKEKCLEVEKARLAASKMQDELRLKEEELQDYQRAEEEALTKRQLLEQSLKDLEYELEAKSHLKDDRSRLIKQMEDKVSQLEIELEEERTNADLLSERITWSREQMEQMRSELLQEKAAKQDLECDKISLERQNKDLKSRIIHLEGSYRSSKEGLVVQMEARIAELEDRLENEERDRANLQLSNRRLERKVKELVMQVDDEHLSLTDQKDQLSLRLKAMKRQVEEAEEEIDRLESSKKKLQRELEEQMGVNEQLQGQLNSLKKGLRLKTLSSKVLDDSDDDDLSSDAGSLYEAPLSYAFPKDSTIASQI

The target of the experiment is T1, EPRp-FLAG (small EPR-encoded peptide, FLAG-tagged) (mouse). Kind of experiment: co-IP; coimmunoprecipitation of FLAG-tagged EPRp and junctional proteins in total extracts from NMuMG cells stably transfected with EPRp-FLAG; immunoblots with the indicated antibodies.
“CGN (Cingulin) (from UniProt P59242 1-1191)”: the binding result was “binds”.

As for “CTTN (Cortactin) (from UniProt Q60598 1-546)”, the binding result is “binds”.

As to “MYH9 (epithelial myosin-II) (from UniProt P35579 1-1960)”, the binding result is “binds”.

Turning to B1, the binding entry is given as “binds”.
